# Test results: the supplement of paper PMC8728848
# This is one part of the list.
# B1: PEB1 (Campylobacter jejuni), Q0P9X8 (protein)
# chain: MVFRKSLLKLAVFALGACVAFSNANAAEGKLESIKSKGQLIVGVKNDVPHYALLDQATGEIKGFEVDVAKLLAKSILGDDKKIKLVAVNAKTRGPLLDNGSVDAVIATFTITPERKRIYNFSEPYYQDAIGLLVLKEKKYKSLADMKGANIGVAQAATTKKAIGEAAKKIGIDVKFSEFPDYPSIKAALDAKRVDAFSVDKSILLGYVDDKSEILPDSFEPQSYGIVTKKDDPAFAKYVDDFVKEHKNEIDALAKKWGL
# What was measured:
# Assay in all cases: glycan array binding signal (z-score within array); higher = stronger binding
# Details in all cases: glycan notation: IUPAC condensed, linker removed
# [1] = target: Gal(b1-3)[Fuc(a1-4)]GlcNAc
# Outline: (§1)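 Glycan array binding is given as a within-array Z-score, which can be read as non-binding when negative. The arrays, 3228 of them, came from the Consortium for Functional Glycomics database and were retained only where the protein sequence was available. Z-scores were averaged across arrays of the same protein sequence at different concentrations or buffers and across linkers.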
# [2] = target: Gal(b1-3)[Fuc(a1-4)]GlcNAc(b1-2)Man(a1-3)[Gal(b1-3)[Fuc(a1-4)]GlcNAc(b1-2)Man(a1-6)]Man(b1-4)GlcNAc(b1-4)GlcNAc
# Outline: as §1
# [3] = target: Gal(b1-3)[Fuc(a1-4)]GlcNAc(b1-2)Man(a1-3)[Gal(b1-3)[Fuc(a1-4)]GlcNAc(b1-2)Man(a1-6)]Man(b1-4)GlcNAc(b1-4)[Fuc(a1-6)]GlcNAc
# Outline: as §1
# [4] = target: Gal(b1-3)[Fuc(a1-4)]GlcNAc(b1-3)Gal(b1-3)[Fuc(a1-4)]GlcNAc
# Outline: as §1
# [5] = target: Gal(b1-3)[Fuc(a1-4)]GlcNAc(b1-3)Gal(b1-4)GlcNAc
# Outline: as §1
# [6] = target: Gal(b1-3)[Fuc(a1-4)]GlcNAc(b1-3)Gal(b1-4)[Fuc(a1-3)]GlcNAc
# Outline: as §1
# [7] = target: Gal(b1-3)[GlcNAc(b1-6)]GalNAc
# Outline: as §1
# [8] = target: Gal(b1-3)[Neu5Ac(a2-6)]GalNAc
# Outline: as §1
# [9] = target: Gal(b1-3)[Neu5Ac(a2-6)]GlcNAc(b1-6)Gal(b1-4)Glc
# Outline: as §1
# [10] = target: Gal(b1-3)[Neu5Ac(b2-6)]GalNAc
# Outline: as §1
# [11] = target: Gal(b1-4)GalNAc(a1-3)[Fuc(a1-2)]Gal(b1-4)GlcNAc
# Outline: as §1
# [12] = target: Gal(b1-4)GalNAc(b1-3)[Fuc(a1-2)]Gal(b1-4)GlcNAc
# Outline: as §1
# [13] = target: Gal(b1-4)Glc
# Outline: as §1
# [14] = target: Gal(b1-4)Glc6S
# Outline: as §1
# [15] = target: Gal(b1-4)GlcNAc
# Outline: as §1
# [16] = target: Gal(b1-4)GlcNAc(a1-6)Gal(b1-4)GlcNAc
# Outline: as §1
# [17] = target: Gal(b1-4)GlcNAc(b1-2)Man(a1-3)Man(b1-4)GlcNAc(b1-4)GlcNAc
# Outline: as §1
# [18] = target: Gal(b1-4)GlcNAc(b1-2)Man(a1-3)[Gal(b1-4)GlcNAc(b1-2)Man(a1-6)]Man(b1-4)GlcNAc(b1-4)GlcNAc
# Outline: as §1
# [19] = target: Gal(b1-4)GlcNAc(b1-2)Man(a1-3)[Gal(b1-4)GlcNAc(b1-2)Man(a1-6)]Man(b1-4)GlcNAc(b1-4)[Fuc(a1-6)]GlcNAc
# Outline: as §1
# [20] = target: Gal(b1-4)GlcNAc(b1-2)Man(a1-3)[GlcNAc(b1-2)Man(a1-6)]Man(b1-4)GlcNAc(b1-4)GlcNAc
# Outline: as §1
# [21] = target: Gal(b1-4)GlcNAc(b1-2)Man(a1-3)[Man(a1-6)]Man(b1-4)GlcNAc(b1-4)GlcNAc
# Outline: as §1
# [22] = target: Gal(b1-4)GlcNAc(b1-2)Man(a1-6)Man(b1-4)GlcNAc(b1-4)GlcNAc
# Outline: as §1
# [23] = target: Gal(b1-4)GlcNAc(b1-2)Man(a1-6)[GlcNAc(b1-2)Man(a1-3)]Man(b1-4)GlcNAc(b1-4)GlcNAc
# Outline: as §1
# [24] = target: Gal(b1-4)GlcNAc(b1-2)Man(a1-6)[Man(a1-3)]Man(b1-4)GlcNAc(b1-4)GlcNAc
# Outline: as §1
# [25] = target: Gal(b1-4)GlcNAc(b1-2)[Gal(b1-4)GlcNAc(b1-4)]Man(a1-3)[Gal(b1-4)GlcNAc(b1-2)Man(a1-6)]Man(b1-4)GlcNAc(b1-4)GlcNAc
# Outline: as §1
# [26] = target: Gal(b1-4)GlcNAc(b1-2)[Gal(b1-4)GlcNAc(b1-4)]Man(a1-3)[Gal(b1-4)GlcNAc(b1-2)[Gal(b1-4)GlcNAc(b1-6)]Man(a1-6)]Man(b1-4)GlcNAc(b1-4)GlcNAc
# Outline: as §1
# [27] = target: Gal(b1-4)GlcNAc(b1-3)Gal(b1-3)GlcNAc
# Outline: as §1
# [28] = target: Gal(b1-4)GlcNAc(b1-3)Gal(b1-4)Glc
# Outline: as §1
# [29] = target: Gal(b1-4)GlcNAc(b1-3)Gal(b1-4)GlcNAc
# Outline: as §1
# [30] = target: Gal(b1-4)GlcNAc(b1-3)Gal(b1-4)GlcNAc(b1-3)Gal(b1-4)GlcNAc
# Outline: as §1
# [31] = target: Gal(b1-4)GlcNAc(b1-3)Gal(b1-4)[Fuc(a1-3)]GlcNAc(b1-3)Gal(b1-4)[Fuc(a1-3)]GlcNAc
# Outline: as §1
# [32] = target: Gal(b1-4)GlcNAc(b1-3)GalNAc
# Outline: as §1
# [33] = target: Gal(b1-4)GlcNAc(b1-3)[Gal(b1-4)GlcNAc(b1-6)]Gal(b1-4)GlcNAc
# Outline: as §1
# [34] = target: Gal(b1-4)GlcNAc(b1-3)[Gal(b1-4)GlcNAc(b1-6)]GalNAc
# Outline: as §1
# [35] = target: Gal(b1-4)GlcNAc(b1-3)[GlcNAc(b1-6)]Gal(b1-4)GlcNAc
# Outline: as §1
# [36] = target: Gal(b1-4)GlcNAc(b1-6)Gal(b1-4)GlcNAc
# Outline: as §1
# [37] = target: Gal(b1-4)GlcNAc(b1-6)GalNAc
# Outline: as §1
binder,measurement,setting,value
B1,glycan array binding signal (z-score),[1],0.13
same,glycan array binding signal (z-score),[2],4.54
same,glycan array binding signal (z-score),[3],-0.092
same,glycan array binding signal (z-score),[4],-0.144
same,glycan array binding signal (z-score),[5],-0.327
same,glycan array binding signal (z-score),[6],-0.196
same,glycan array binding signal (z-score),[7],-1.2
same,glycan array binding signal (z-score),[8],-0.718
same,glycan array binding signal (z-score),[9],-0.094
same,glycan array binding signal (z-score),[10],-1.04
same,glycan array binding signal (z-score),[11],0.129
same,glycan array binding signal (z-score),[12],0.322
same,glycan array binding signal (z-score),[13],0.067
same,glycan array binding signal (z-score),[14],0.229
same,glycan array binding signal (z-score),[15],-0.159
same,glycan array binding signal (z-score),[16],-0.863
same,glycan array binding signal (z-score),[17],-0.553
same,glycan array binding signal (z-score),[18],-0.123
same,glycan array binding signal (z-score),[19],0.818
same,glycan array binding signal (z-score),[20],0.41
same,glycan array binding signal (z-score),[21],-0.385
same,glycan array binding signal (z-score),[22],-0.028
same,glycan array binding signal (z-score),[23],-0.568
same,glycan array binding signal (z-score),[24],-1.07
same,glycan array binding signal (z-score),[25],0.759
same,glycan array binding signal (z-score),[26],0.649
same,glycan array binding signal (z-score),[27],0.014
same,glycan array binding signal (z-score),[28],-0.613
same,glycan array binding signal (z-score),[29],0.03
same,glycan array binding signal (z-score),[30],0.018
same,glycan array binding signal (z-score),[31],-0.999
same,glycan array binding signal (z-score),[32],-0.743
same,glycan array binding signal (z-score),[33],-0.728
same,glycan array binding signal (z-score),[34],0.006
same,glycan array binding signal (z-score),[35],0.192
same,glycan array binding signal (z-score),[36],-1.39
same,glycan array binding signal (z-score),[37],0.425
